Results taken from the supplement of paper PMC10849652.
Some of the results follow.

By UniProt entry, the sequences of proteins in these tests, tags left out. Where a name states a change or a piece, a line headed by the entry shows the natural chain unless it says otherwise.
UniProt Q7Z7E8: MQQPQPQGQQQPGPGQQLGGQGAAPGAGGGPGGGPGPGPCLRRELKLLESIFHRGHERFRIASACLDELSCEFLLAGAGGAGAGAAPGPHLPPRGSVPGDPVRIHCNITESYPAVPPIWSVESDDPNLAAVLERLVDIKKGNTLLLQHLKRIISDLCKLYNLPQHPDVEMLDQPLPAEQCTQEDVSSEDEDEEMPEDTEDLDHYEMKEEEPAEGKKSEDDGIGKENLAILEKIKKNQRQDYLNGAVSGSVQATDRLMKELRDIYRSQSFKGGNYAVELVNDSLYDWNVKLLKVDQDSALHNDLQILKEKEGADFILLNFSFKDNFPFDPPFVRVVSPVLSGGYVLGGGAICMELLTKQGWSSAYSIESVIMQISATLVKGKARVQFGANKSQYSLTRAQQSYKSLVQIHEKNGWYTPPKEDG
UniProt Q8NG11: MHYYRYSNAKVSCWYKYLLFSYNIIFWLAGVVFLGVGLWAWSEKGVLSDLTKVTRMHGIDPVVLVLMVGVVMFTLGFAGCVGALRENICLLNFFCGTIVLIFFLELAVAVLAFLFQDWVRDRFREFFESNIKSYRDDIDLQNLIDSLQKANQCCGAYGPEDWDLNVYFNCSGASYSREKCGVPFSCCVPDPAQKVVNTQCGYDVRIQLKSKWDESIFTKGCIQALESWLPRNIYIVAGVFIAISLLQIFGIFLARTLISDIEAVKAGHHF
UniProt Q9BSJ2, whole entry, looked up: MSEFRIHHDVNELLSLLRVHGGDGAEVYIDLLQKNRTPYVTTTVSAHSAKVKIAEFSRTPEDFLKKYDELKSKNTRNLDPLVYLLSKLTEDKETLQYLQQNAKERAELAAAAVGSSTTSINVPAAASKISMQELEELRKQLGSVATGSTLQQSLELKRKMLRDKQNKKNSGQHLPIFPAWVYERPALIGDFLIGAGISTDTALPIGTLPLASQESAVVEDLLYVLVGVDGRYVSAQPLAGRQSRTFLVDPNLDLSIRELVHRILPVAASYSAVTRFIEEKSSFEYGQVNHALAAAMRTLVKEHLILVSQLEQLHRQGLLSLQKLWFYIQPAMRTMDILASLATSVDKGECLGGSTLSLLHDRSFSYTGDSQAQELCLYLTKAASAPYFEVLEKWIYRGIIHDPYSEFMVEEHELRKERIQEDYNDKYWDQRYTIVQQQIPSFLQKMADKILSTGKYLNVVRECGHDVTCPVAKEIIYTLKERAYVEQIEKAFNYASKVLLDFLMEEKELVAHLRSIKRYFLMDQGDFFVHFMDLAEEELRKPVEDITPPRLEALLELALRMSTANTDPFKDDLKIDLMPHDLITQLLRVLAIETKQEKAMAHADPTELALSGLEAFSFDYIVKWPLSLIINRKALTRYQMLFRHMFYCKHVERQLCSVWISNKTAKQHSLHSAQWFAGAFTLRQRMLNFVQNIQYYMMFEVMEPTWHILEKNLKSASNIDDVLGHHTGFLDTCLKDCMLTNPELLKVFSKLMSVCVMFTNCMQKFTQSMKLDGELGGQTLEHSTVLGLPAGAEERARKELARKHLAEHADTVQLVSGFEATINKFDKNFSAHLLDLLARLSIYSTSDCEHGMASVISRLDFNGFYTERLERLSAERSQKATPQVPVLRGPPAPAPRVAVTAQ
UniProt Q6PKC3: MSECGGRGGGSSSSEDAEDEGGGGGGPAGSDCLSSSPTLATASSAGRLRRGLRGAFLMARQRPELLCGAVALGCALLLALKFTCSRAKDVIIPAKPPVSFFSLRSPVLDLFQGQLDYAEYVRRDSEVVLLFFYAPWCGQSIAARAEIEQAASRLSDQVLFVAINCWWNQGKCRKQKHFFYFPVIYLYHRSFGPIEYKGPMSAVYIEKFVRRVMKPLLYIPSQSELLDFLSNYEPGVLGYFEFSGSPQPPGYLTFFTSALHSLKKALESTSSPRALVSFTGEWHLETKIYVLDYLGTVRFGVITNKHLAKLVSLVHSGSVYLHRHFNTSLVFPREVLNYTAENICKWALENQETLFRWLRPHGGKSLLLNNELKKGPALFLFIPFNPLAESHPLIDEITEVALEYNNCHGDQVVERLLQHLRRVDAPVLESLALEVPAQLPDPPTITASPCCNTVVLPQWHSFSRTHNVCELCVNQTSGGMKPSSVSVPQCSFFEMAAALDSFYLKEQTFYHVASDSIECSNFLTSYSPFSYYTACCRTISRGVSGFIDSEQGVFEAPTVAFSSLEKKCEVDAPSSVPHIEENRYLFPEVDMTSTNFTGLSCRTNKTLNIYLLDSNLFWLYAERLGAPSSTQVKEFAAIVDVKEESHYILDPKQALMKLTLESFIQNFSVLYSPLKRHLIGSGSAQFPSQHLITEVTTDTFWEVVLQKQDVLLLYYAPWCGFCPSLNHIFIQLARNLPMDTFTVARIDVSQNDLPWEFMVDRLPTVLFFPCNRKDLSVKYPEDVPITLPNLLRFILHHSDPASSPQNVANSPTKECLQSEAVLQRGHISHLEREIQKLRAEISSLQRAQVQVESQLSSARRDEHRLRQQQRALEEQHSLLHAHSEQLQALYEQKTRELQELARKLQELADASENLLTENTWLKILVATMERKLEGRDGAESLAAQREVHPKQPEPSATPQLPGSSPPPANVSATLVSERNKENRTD
UniProt Q5JXB2: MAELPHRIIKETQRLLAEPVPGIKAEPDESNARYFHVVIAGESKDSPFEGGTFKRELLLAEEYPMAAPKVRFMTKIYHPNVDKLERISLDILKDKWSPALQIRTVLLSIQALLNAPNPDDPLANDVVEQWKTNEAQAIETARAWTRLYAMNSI
UniProt P60604: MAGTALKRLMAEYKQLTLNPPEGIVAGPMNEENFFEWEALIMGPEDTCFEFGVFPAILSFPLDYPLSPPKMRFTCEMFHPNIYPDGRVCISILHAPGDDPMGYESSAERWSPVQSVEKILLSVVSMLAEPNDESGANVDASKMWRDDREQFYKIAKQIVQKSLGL
UniProt Q15819: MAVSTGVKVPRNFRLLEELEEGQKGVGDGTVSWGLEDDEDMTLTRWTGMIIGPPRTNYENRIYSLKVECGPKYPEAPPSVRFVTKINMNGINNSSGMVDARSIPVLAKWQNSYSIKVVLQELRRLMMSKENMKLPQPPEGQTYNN
UniProt Q8NBP0: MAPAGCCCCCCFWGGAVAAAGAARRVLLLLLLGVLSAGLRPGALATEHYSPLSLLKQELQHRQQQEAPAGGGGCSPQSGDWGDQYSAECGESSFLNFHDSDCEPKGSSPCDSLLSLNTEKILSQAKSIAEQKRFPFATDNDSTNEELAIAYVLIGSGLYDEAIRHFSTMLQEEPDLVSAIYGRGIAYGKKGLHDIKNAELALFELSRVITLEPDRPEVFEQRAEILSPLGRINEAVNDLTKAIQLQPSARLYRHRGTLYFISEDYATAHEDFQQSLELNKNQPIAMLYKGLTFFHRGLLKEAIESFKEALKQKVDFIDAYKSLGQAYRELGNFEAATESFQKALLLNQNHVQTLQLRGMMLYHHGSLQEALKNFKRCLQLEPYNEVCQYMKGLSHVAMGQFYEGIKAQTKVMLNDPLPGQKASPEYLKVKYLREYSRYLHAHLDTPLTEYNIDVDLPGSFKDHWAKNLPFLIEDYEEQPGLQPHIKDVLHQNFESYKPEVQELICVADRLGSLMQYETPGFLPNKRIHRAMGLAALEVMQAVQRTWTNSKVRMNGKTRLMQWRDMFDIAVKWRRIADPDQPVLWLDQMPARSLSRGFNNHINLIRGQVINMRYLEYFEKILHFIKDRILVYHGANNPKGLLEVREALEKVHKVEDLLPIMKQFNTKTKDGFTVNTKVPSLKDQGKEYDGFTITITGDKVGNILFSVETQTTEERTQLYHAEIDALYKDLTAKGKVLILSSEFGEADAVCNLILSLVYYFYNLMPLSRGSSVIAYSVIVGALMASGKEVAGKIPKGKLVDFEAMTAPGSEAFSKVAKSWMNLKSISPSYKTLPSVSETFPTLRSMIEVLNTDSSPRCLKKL
UniProt Q9P2K2: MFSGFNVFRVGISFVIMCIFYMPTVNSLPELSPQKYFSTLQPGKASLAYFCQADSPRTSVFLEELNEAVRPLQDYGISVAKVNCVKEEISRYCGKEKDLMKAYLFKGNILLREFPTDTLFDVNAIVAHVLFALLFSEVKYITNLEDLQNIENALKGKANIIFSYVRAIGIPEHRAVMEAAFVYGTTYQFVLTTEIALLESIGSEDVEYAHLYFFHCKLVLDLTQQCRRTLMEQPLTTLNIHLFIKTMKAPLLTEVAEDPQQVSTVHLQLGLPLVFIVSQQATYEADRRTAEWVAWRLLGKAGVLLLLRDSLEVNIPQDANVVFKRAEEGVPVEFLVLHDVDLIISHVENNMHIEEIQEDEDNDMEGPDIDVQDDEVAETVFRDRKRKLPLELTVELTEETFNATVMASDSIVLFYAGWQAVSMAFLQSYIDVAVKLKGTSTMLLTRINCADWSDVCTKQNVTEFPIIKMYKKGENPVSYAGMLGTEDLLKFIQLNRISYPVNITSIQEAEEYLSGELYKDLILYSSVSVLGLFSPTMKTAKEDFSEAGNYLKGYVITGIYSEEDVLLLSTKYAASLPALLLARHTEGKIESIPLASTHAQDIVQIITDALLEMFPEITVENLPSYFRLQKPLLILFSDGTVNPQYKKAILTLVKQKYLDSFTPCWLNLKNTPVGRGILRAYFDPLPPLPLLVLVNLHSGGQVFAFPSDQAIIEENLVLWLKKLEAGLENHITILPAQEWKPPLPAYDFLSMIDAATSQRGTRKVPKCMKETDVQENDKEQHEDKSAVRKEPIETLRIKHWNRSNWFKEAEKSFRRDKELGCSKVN
UniProt Q9NX01: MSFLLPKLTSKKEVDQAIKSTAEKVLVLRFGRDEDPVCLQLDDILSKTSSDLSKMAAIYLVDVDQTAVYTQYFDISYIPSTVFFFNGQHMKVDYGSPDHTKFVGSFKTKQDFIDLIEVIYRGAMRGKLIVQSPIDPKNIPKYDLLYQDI
UniProt P68036, whole entry, looked up: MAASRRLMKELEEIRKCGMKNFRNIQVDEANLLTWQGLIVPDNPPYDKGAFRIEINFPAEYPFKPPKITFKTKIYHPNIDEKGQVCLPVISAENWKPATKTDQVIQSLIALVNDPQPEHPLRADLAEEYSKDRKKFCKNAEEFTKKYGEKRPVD
UniProt Q9BVA1, whole entry, looked up: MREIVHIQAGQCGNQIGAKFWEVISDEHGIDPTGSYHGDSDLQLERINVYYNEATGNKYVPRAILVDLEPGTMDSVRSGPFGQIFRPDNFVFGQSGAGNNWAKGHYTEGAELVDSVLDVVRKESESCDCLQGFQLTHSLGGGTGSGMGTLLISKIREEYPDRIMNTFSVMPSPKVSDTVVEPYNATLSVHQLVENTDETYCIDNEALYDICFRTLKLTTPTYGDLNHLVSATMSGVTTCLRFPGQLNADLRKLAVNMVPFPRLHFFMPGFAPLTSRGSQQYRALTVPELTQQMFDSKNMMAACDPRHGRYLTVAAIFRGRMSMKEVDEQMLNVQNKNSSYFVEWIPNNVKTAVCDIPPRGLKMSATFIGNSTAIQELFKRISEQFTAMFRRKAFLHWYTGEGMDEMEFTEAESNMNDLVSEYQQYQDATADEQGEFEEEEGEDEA
UniProt Q12792, whole entry, looked up: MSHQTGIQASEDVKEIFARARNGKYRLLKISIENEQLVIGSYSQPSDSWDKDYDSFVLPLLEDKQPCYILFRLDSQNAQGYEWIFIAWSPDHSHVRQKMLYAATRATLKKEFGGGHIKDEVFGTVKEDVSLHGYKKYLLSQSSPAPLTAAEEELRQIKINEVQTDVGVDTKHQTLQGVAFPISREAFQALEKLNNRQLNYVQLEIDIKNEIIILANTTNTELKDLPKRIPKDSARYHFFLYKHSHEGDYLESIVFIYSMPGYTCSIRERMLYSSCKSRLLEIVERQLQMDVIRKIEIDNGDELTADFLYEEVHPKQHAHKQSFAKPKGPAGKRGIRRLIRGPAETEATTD
UniProt A2RUC4: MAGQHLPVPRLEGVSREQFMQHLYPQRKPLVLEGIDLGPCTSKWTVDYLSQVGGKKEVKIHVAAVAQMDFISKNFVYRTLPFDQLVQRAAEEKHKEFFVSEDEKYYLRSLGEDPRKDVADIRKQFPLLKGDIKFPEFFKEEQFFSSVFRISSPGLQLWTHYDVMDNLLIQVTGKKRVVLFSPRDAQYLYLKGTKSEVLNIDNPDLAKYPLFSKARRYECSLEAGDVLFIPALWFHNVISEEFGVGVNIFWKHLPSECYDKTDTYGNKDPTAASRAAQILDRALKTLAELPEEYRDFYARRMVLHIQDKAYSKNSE
UniProt O60637: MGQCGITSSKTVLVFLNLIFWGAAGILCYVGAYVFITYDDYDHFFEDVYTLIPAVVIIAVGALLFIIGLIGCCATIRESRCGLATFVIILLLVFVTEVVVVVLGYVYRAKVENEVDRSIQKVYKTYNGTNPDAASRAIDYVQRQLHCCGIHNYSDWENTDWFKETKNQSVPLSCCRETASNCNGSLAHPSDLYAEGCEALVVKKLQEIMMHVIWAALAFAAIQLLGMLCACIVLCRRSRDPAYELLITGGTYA
UniProt P30536, whole entry, looked up: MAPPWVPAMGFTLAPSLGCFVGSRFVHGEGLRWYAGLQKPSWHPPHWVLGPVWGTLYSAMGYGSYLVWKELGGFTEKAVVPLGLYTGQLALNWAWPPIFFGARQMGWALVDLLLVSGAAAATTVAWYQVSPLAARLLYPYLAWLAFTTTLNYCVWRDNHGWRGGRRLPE

How the values were obtained:
Assay in all cases: log2 fold change, soluble protein after heating vs DMSO (PISA); higher = thermal stabilisation; K562 cells, 10 uM, 30 min; active = over 0.2 and 3.5 SD of the protein, either way, in both replicates (recomputed)
erlotinib = compound: C#Cc1cccc(Nc2ncnc3cc(OCCOC)c(OCCOC)cc23)c1 [erlotinib]
Procedure, shortened: (§1)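 Soluble protein was quantified by TMTpro 16plex LC-MS/MS after channel sums were equalised. It was obtained as the supernatant after 21,000xg for 90 min from pooled aliquots of K562 cells (2×10^6 cells/mL, 10 μM compound, 30 min) heated for 3 min across 48°C-58°C and extracted in PBS with 0.5% NP-40 at 4°C. Thermal stability values are relative to control samples and come from duplicates. They are given as log2 fold changes.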

[1] = compound: C/C(=N\NC(=O)C1=CC(=CC=C1)S(=O)(=O)N2CCOCC2)/C3=C(C=CC(=C3)Cl)O
Procedure, shortened: as §1

[2] = compound: C1=CC(=C(C=C1Cl)C2=NC3=NC=CN=C3C(=N2)NC4=CC=NC=C4)F
Procedure, shortened: as §1

[3] = compound: C1=CC(=CC=C1C2=NC3=C(N2)C=C(C=C3)C(=O)N)OC4=CC=C(C=C4)Cl
Procedure, shortened: as §1

[4] = compound: C1=CC2=C(C=CC(=C2)/C=C\3/C(=O)NC(=NCC4=CC=CS4)S3)N=C1
Procedure, shortened: as §1

[5] = compound: C1=CC2=NC=CN=C2C=C1/C=C/3\C(=O)NC(=O)S3
Procedure, shortened: as §1

[6] = compound: C1=CC=C(C=C1)C2=NC(=C(N2)C3=CC=NC=C3)C4=CC(=C(C=C4)Cl)O
Procedure, shortened: as §1

[7] = compound: C1=CC=C2C(=C1)C3=NNC4=CC=CC(=C43)C2=O
Procedure, shortened: as §1

[8] = compound: C1CCN(C1)C(=O)NC2=CC=CC(=C2)NC3=NC=C(C(=N3)NCCC4=CN=CN4)Br
Procedure, shortened: as §1

[9] = compound: C1CN(CCC1(CC2=CC=C(C=C2)Cl)N)C3=NC=NC4=C3C=CN4
Procedure, shortened: as §1

Measured: log2 fold change

TUBB4A (UniProt P04350)
inactive: erlotinib -0.034 | [1] 0.062 | [2] 0.418 | [3] 0.141 | [4] 0.027 | [5] 0.153 | [6] 0.039 | [7] 0.039 | [8] 0.029 | [9] 0.295

UBA6
inactive: erlotinib 0.011 | [1] 0.099 | [2] 0.06 | [3] 0.038 | [4] 0.014 | [5] -0.037 | [6] 0.014 | [7] 0.015 | [8] -0.024 | [9] -0.015

UBE2Q1 (UniProt Q7Z7E8)
inactive: erlotinib 0.058 | [1] 0.006 | [2] 0.059 | [3] 0.017 | [4] 0.019 | [5] 0.061 | [6] 0.014 | [7] 0.026 | [8] -0.016 | [9] -0.037

TSPAN14 (UniProt Q8NG11)
inactive: erlotinib 0.007 | [1] -0.02 | [2] -0.008 | [3] -0.025 | [4] 0.049 | [5] 0.042 | [6] -0.073 | [7] -0.059 | [8] 0.024 | [9] 0.046

TUBGCP2 isoform 4 (UniProt Q9BSJ2)
inactive: erlotinib 0.058 | [1] -0.08 | [2] 0.017 | [3] 0.061 | [4] 0.126 | [5] -0.052 | [6] -0.052 | [7] 0.091 | [8] -0.112 | [9] -0.147

TTC4 (UniProt O95801)
inactive: erlotinib 0.094 | [1] 0.081 | [2] 0.016 | [3] 0.005 | [4] 0.061 | [5] -0.007 | [6] 0.081 | [7] 0.025 | [8] -0.057 | [9] -0.018

TXNDC11 (UniProt Q6PKC3)
inactive: erlotinib -0.058 | [1] 0.003 | [2] -0.06 | [3] 0.019 | [4] -0.037 | [5] -0.005 | [6] 0.003 | [7] -0.001 | [8] -0.026 | [9] -0.042

UBE2NL (UniProt Q5JXB2)
inactive: erlotinib 0.013 | [1] 0.07 | [2] 0.229 | [3] -0.027 | [4] 0.062 | [5] 0.041 | [6] 0.002 | [7] 0.048 | [8] -0.035 | [9] -0.019

UBE2L6 (UniProt O14933)
inactive: erlotinib 0.06 | [1] -0.022 | [3] 0.054 | [4] 0.078 | [7] -0.021

UBE2G2 (UniProt P60604)
inactive: erlotinib -0.148 | [1] 0.168 | [3] 0.173 | [4] -0.105 | [5] 0.038 | [6] 0.205 | [7] 0.099 | [8] -0.111 | [9] -0.208

TSTA3 (UniProt Q13630)
inactive: erlotinib 0 | [1] -0.011 | [2] 0.031 | [3] 0.006 | [4] 0.01 | [5] -0.039 | [6] -0.009 | [7] -0.008 | [8] -0.003 | [9] 0.035

UBE2V2 (UniProt Q15819)
inactive: erlotinib 0.027 | [1] 0.009 | [2] 0.042 | [3] -0.004 | [4] 0.015 | [5] -0.003 | [6] -0.034 | [7] 0.028 | [8] -0.009 | [9] 0.023

2 consecutive entries already listed:
UBE2L6 (UniProt O14933)
inactive: erlotinib 0.06 | [1] -0.022 | [3] 0.054 | [4] 0.078 | [7] -0.021

UBE2G2 (UniProt P60604)
inactive: erlotinib -0.148 | [1] 0.168 | [3] 0.173 | [4] -0.105 | [5] 0.038 | [6] 0.205 | [7] 0.099 | [8] -0.111 | [9] -0.208

Continued.

TTC13 (UniProt Q8NBP0)
inactive: erlotinib -0.127 | [1] -0.025 | [3] 0.08 | [4] -0.162 | [6] -0.251 | [7] 0.077 | [8] -0.018 | [9] 0.085

TUSC3 isoform 2 (UniProt Q13454)
inactive: erlotinib -0.017 | [1] -0.094 | [2] 0.01 | [3] 0.016 | [4] 0.012 | [5] 0.101 | [6] -0.052 | [7] -0.079 | [8] 0.037 | [9] -0.012

TXNDC16 (UniProt Q9P2K2)
inactive: erlotinib -0.055 | [1] -0.086 | [2] 0.013 | [3] -0.031 | [4] 0.149 | [6] -0.024 | [7] 0.002 | [8] 0.155 | [9] -0.058

TXNL4B (UniProt Q9NX01)
inactive: erlotinib 0.018 | [1] 0.007 | [3] -0.001 | [4] 0.088 | [5] 0.221 | [6] 0.008 | [7] 0.041 | [8] -0.005 | [9] -0.016

TUBG1 (UniProt P23258)
inactive: erlotinib -0.059 | [1] -0.123 | [2] -0.037 | [3] 0.06 | [4] 0.061 | [5] -0.008 | [6] -0.006 | [7] -0.014 | [8] -0.015 | [9] 0.115

UBE2L3 isoform 3 (UniProt P68036)
inactive: erlotinib 0.022 | [1] -0.034 | [2] 0.045 | [3] 0.012 | [4] -0.049 | [5] 0.003 | [6] -0.027 | [7] 0 | [8] 0.044 | [9] 0.047

TUBB2B (UniProt Q9BVA1)
inactive: erlotinib 0.034 | [1] -0.077 | [3] -0.081 | [4] -0.006 | [5] 0.037 | [6] -0.041 | [7] -0.026 | [8] -0.067 | [9] 0.127

TWF1 (UniProt Q12792)
inactive: erlotinib -0.074 | [1] 0.129 | [2] 0.028 | [3] 0.063 | [4] 0.002 | [5] 0.083 | [6] 0.019 | [7] -0.021 | [8] -0.019 | [9] -0.068

UBE2I (UniProt P63279)
inactive: erlotinib -0.031 | [1] 0.08 | [2] 0.083 | [3] -0.026 | [4] -0.02 | [5] 0.005 | [6] 0.016 | [7] -0.003 | [8] 0.02 | [9] 0.007

TTC7B isoform 2 (UniProt Q86TV6)
inactive: erlotinib 0.015 | [1] -0.034 | [3] -0.037 | [4] 0.076 | [5] 0.117 | [6] -0.028 | [7] 0.04 | [8] -0.014 | [9] 0.013

TYW5 (UniProt A2RUC4)
inactive: erlotinib -0.045 | [1] -0.136 | [2] 0.12 | [3] 0.052 | [4] 0.042 | [6] 0.035 | [7] -0.021 | [8] 0.078 | [9] 0.071

TUBB4A (UniProt M0QYM7)
inactive: erlotinib -0.021 | [1] -0.21 | [2] -0.124 | [3] -0.108 | [4] 0.345 | [5] 0.048 | [7] -0.134 | [8] 0.424 | [9] -0.241

TUBAL3 (UniProt A6NHL2)
inactive: erlotinib 0.092 | [1] 0.096 | [2] 0.099 | [3] 0.018 | [4] 0.048 | [5] 0.004 | [6] 0.031 | [7] -0.034 | [8] -0.046 | [9] 0.145

TSPAN3 (UniProt O60637)
inactive: erlotinib 0.042 | [1] -0.006 | [3] 0.093 | [4] -0.011 | [5] 0.043 | [6] -0.172 | [7] 0.03 | [8] 0.029 | [9] 0.013

TTI2 (UniProt Q6NXR4)
inactive: erlotinib 0 | [1] 0.053 | [2] 0.003 | [3] -0.035 | [4] 0.029 | [5] -0.036 | [6] -0.095 | [7] 0.046 | [8] 0.008 | [9] -0.028

TTF2 (UniProt Q9UNY4)
inactive: erlotinib 0.184 | [1] 0.063 | [2] -0.238 | [3] 0.144 | [4] 0.18 | [6] -0.055 | [7] -0.036 | [8] -0.14 | [9] -0.232

TSPO (UniProt P30536)
inactive: erlotinib 0.004 | [1] -0.015 | [2] -0.015 | [3] 0.065 | [4] 0.042 | [5] 0.037 | [6] 0.041 | [7] -0.067 | [8] 0.057 | [9] 0.01

TTN isoform 12 (UniProt Q8WZ42)
inactive: erlotinib 0.143 | [1] -0.245 | [2] -0.004 | [3] 0.009 | [4] 0.227 | [5] -0.134 | [6] -0.125 | [7] -0.077 | [8] 0.076 | [9] -0.026

TYW1 (UniProt Q9NV66)
inactive: erlotinib -0.045 | [1] 0.012 | [2] 0.055 | [3] 0.057 | [4] 0.003 | [5] 0.009 | [6] 0.042 | [7] 0.057 | [8] -0.041 | [9] 0.022
